The assay concerns the target T1, CaSR calcium sensing receptor (UniProt P41180).
T1 sequence: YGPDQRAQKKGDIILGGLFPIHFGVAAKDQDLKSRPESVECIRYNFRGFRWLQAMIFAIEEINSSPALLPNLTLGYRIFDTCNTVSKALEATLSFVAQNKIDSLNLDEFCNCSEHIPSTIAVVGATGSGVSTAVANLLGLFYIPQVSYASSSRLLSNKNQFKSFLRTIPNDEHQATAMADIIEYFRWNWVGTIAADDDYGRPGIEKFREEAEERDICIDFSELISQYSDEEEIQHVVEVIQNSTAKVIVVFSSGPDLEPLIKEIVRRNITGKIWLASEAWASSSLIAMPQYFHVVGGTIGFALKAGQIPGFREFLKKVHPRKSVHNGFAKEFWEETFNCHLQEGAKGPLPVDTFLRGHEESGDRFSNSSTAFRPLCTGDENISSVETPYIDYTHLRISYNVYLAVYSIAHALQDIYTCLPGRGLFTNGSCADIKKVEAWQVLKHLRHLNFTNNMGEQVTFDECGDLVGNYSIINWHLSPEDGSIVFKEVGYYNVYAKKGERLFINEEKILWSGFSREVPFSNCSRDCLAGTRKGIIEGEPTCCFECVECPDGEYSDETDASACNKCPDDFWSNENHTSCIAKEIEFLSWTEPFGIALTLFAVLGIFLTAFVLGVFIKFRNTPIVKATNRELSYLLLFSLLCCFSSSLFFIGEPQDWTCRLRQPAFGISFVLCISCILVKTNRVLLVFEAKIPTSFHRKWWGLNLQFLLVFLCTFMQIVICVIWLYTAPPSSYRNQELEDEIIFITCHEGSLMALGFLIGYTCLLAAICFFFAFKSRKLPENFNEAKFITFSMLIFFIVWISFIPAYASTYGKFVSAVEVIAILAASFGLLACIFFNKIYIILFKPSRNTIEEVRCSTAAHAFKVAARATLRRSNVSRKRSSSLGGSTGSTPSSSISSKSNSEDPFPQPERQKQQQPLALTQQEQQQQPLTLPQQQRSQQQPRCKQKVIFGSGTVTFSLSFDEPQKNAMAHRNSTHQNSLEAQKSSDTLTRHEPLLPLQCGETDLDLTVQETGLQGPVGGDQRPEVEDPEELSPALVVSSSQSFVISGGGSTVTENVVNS
Nature of the assay: FRET or BRET; quantitative BRET in HEK293 cells transiently transfected with increasing amounts of RLuc donor and Venus acceptor plasmids (total plasmid kept constant with empty pcDNA3.1); BRET ratio Emission530/Emission485 plotted against Venus fluorescence; slopes of low and high luminescence groups (threshold 1.2 a.u.) compared by ANCOVA and two-way ANOVA.

No constants are given. Whether binding was seen depends on the method and setting. Binding seen in cells or lysates may run through a third protein.

On to AT1R-Venus (receptor), for which the binding result is listed as “no binding”.

Values taken from PMC4887035.
